Consider 46 sequences from the supplement of paper PMC12764529.

The nature of data set [1]: folding stability dG unfold from chymotrypsin proteolysis; higher = more stable. The procedure: (§1)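 Folding stability of de novo designed mini-proteins (<80 aa, no Cys; designed by TrROS, TrMRF, ProteinMPNN and the joint model) was measured by cDNA display proteolysis with trypsin and chymotrypsin. Each protease was used at 11 concentrations in a threefold dilution series plus a no-protease condition. K50 was inferred by Bayesian fitting of sequencing counts, and dG unfold was derived against a sequence-predicted unfolded-state K50 (Tsuboyama et al. method). Sequences shown include variable-length N-terminal GS-type padding (SAGGSAGG...) inside a display construct carrying a PA tag. Rows were kept only if the AF2 dimer inter-PAE was >15, to exclude likely homo-oligomers.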

The nature of data set [2]: folding stability dG unfold (combined trypsin and chymotrypsin); higher = more stable. The procedure:
as §1

± gives the half width of the 95% confidence interval. The two proteases of the assay disagree for many of these sequences.

On to “SAGGSAGGSAGGSMTVSYPGTTRTVPPGSPVVVGGGRVVDPALSFSEVSPEDRVAVGSAPSAGGSAGGSAGG [r17_511_JUSTAS]”, for which the “folding stability dG unfold” value in data set [1] is 1.05 ± 0.019 kcal/mol; in data set [2], 0.493 ± 0.087 kcal/mol.

In the case of “SAGGSAGGSAGGSGNFTIDPALLEEARAEAAAAGEALETIPLKVTRPGGETKTIDIKVGSAGGSAGGSAGGS [r4_367_JUSTAS]”, the “folding stability dG unfold” value in data set [2] is less than -1 kcal/mol. The same measure, in the same setting: in the case of “SAGGSPVLVPLEREETDPARGTRTRTRAYRLPERDIALVEREEIPFAPDGTPLRRTSEEVVSLEELLESAGG [r13_807_JUSTAS]” it was less than -1 kcal/mol.

On to “SAGGSAGGSYKIDKIEVQPPPGGYYQATIEVEQVDPENGNPQRQEQEIPVPANDPKQIKDFLKSAGGSAGGS [r12_691_TrROS]”, for which the “folding stability dG unfold” value was found to be 0.379 ± 0.16 kcal/mol in data set [1] and 0.174 ± 0.22 kcal/mol in data set [2]. “SAGGSAGGSAEEPPETVEIELEFELEDGLVVRIRIEVTPDGEIRIEIEVLPLEELEELFPEKSAGGSAGGSA [r18_302_TrROS_Hall]”: the “folding stability dG unfold” value in data set [1] came to 2.51 ± 0.73 kcal/mol.

As for “SAGGSAGGSKKKITVKIEEVKLNPETGKLVLVKIKLPDGKELVFKTPEEIENLPGAEFEVYELSAGGSAGGS [r20_192_TrROS_Hall]”, the “folding stability dG unfold” value stood at 1.47 ± 0.13 kcal/mol in data set [1] and 1.45 ± 0.27 kcal/mol in data set [2].

For the sequence “SPPVEALLVDADYDEPVDTAHLTALRVRVLRVEVSPDGRLRAVGESELVEVTVPAPKDAPIPRDAVLLVGSA [r9_277_TrMRF]”, the figures for the “folding stability dG unfold” value in data set [1] and in data set [2] were 1.18 ± 0.13 kcal/mol and 0.425 ± 0.054 kcal/mol, respectively. Take “SAGGSAGGSSPSSVTETTLPDGTKVTVKYDPVTNTTTVTTTFPDGTVVTVVNPNNTTTTSPTASAGGSAGGS [r12_360_JUSTAS]”: the “folding stability dG unfold” value in data set [1] stood at 2.55 ± 0.092 kcal/mol. Regarding “SAGGSAGGSAGSLEGLSSAPPDVVVDVELDLVVEEPAEPPRGSPVARPVAPVRRRVRYRPSAGGSAGGSAGG [r11_36_JUSTAS]”, the “folding stability dG unfold” value in data set [1] turned out to be 1.01 ± 0.14 kcal/mol; in data set [2], 0.417 ± 0.15 kcal/mol. On to “SAGGSAGGSAVKVEVEGDYLRIEVEYELYDPETGEKKTLTLELEIKIPPIPPAEVPLVENAASAGGSAGGSA [r18_501_TrMRF]”, for which the “folding stability dG unfold” value in data set [1] was found to be 1.83 ± 0.2 kcal/mol; in data set [2], 1.58 ± 0.47 kcal/mol.

On to “SEAEVEVEVLPGPDAVVVRVRLPGRDEVVELRVLDPHPGEGRVLVAVSPGDDDTVVVRDLSPEDIKALLASA [r9_1221_TrMRF]”, for which the “folding stability dG unfold” value in data set [1] was determined as 0.973 ± 0.055 kcal/mol. Regarding “SAGGSAGGSAGGGPSVPGYVAVSTEETTELVPLPTPRPALRTTTTETLPTATVTTTTLLLSAGGSAGGSAGG [r7_945_JUSTAS]”, the “folding stability dG unfold” value in data set [1] came to 1.45 ± 0.06 kcal/mol; in data set [2] it was 0.63 ± 0.23 kcal/mol. “SAGMKVTVDLTFTFAPDAVSPEEVRAALAAHGDAVEVKPDPSSDRIPVRVEVPPGREAAVRAALAAAGGSAG [r5_378_JUSTAS]”: the “folding stability dG unfold” value in data set [1] worked out at 1.37 ± 0.082 kcal/mol; in data set [2], 0.783 ± 0.2 kcal/mol. Taken in the same sequence, the figures for “SAGGSAGGSAGGGLRDFVASGKPVLVRARGADGEVREVVVAPDEDVPLPGVLEVEVSDVSAGGSAGGSAGGS [r10_700_TrMRF]” were 1.08 ± 0.043 kcal/mol and 0.474 ± 0.082 kcal/mol. Taken in the same sequence, the figures for “SGLVVVPVTHPDGGRVLLVFDPATGRVVVFADPDVPLADIAAALRALLPADADAVVTTHPDGTALVELKPSA [r9_933_TrMRF]” were 2.736 ± 0.025 kcal/mol and 2.28 ± 0.056 kcal/mol.

Regarding “SAGGSAGGSRTPIRARLRLPDNPAWFEATVDWVAPDGTVYAYIDTPNGERRRVDVILEAEFSGSAGGSAGGS [r12_118_TrMRF]”, the “folding stability dG unfold” value in data set [1] came to 1.48 ± 0.034 kcal/mol; in data set [2] it was 0.942 ± 0.03 kcal/mol. Regarding “SAGGSAGGSAGGGPRRLRLSIPLTVPVFTLVDGEPRVEPAPLNLTFEFTLPEGLPTELLSAGGSAGGSAGGS [r10_633_TrMRF]”, the figures for the “folding stability dG unfold” value in data set [1] and in data set [2] were 3.12 ± 0.057 kcal/mol and 2.55 ± 0.095 kcal/mol, respectively. Taken in the same sequence, the figures for “SAGGSAGGSAGMKTVTETEFDPAAPVVTTTTSLVTLPPDGKPSITSTTTTTTAVAAPAAAASAGGSAGGSAG [r3_138_JUSTAS]” were 1.41 ± 0.038 kcal/mol and 1.03 ± 0.062 kcal/mol. Consider “SAGGSAGGSAGGANIPSSAVDAANAVAASGEATDVVVTLTVTGPDGNPTTVTITIKFTAASAGGSAGGSAGG [r7_114_JUSTAS]”, for which the results for the “folding stability dG unfold” value in data set [1] and in data set [2] were 2.5 ± 0.074 kcal/mol and 1.94 ± 0.16 kcal/mol, respectively. As to “SAGGSAGGSAGGPVVARILSYDPERRRLVLELPDGSRLVLPVPDDLRPEDLLDREVVLDLSAGGSAGGSAGG [r7_296_TrMRF]”, the entries for the “folding stability dG unfold” value in data set [1] and in data set [2] were 2.89 ± 0.062 kcal/mol and 2.41 ± 0.11 kcal/mol, respectively. Taken in the same sequence, the figures for “SAGGSAGGSAGGSTLEEIRELAKAGKKVKIKLKETGKEVEITPEDLEKLKGKEIEIEEVSAGGSAGGSAGGS [r4_157_TrROS_Hall]” were 1.01 ± 0.18 kcal/mol and 0.486 ± 0.43 kcal/mol.

As for “SAGGSAKRVAFIGGGPEIEKVIKEAEKNGFEAVPFDGTPDEFLDALKKNFPDVKQIVFPDGKVLDASAGGSA [r15_712_TrMRF]”, the “folding stability dG unfold” value is 0.192 ± 0.13 kcal/mol in data set [1] and -0.134 ± 0.13 kcal/mol in data set [2]. Taken in the same sequence, the figures for “SAGGAPPPVLVVPFDANLGGEAVPALVAVLPNGEALVFIVGPDGSAGVVPAGALAELLKAPGSLAAVSAGGS [r16_105_TrMRF]” were 2.12 ± 0.092 kcal/mol and 1.47 ± 0.13 kcal/mol. With “SAPPLPPDAVVETESEPVGVDPTENGTLTYYRRTVRVTLPDGSLTLESLVFRDPATGSSTSSVLRETALSAG [r14_293_JUSTAS]”, the “folding stability dG unfold” value in data set [2] is less than -1 kcal/mol. In the case of “SALEALLAAAREAAAAGLEEVEVELPLPGERSLRARFRVERRDGAPVRIEVELEYYDAGGRRTPRRLELTLS [r1_254_JUSTAS]”, the “folding stability dG unfold” value is 3.19 ± 0.043 kcal/mol in data set [1] and 2.63 ± 0.053 kcal/mol in data set [2]. In the case of “SAGGSAGGSAGMPPGAPKLRVRVEIQNPNGEPIGEHEFPVDDAEEFAENNGMPIRIDDIVSAGGSAGGSAGG [r17_200_TrROS]”, the “folding stability dG unfold” value was 1.07 ± 0.029 kcal/mol in data set [1] and 0.531 ± 0.11 kcal/mol in data set [2]. Taken in the same sequence, the figures for “SAGGSAGGSAGARTITLPVPPDLDVVRVEFPEGEVRTLPVSPDEDVVVEVPEDRITITVPSAGGSAGGSAGG [r11_52_JUSTAS]” were 1.09 ± 0.051 kcal/mol and 0.606 ± 0.071 kcal/mol. As for “MNIPLKEILDKAKAEGKPVVFPDGTKTLSFEPGGKATIEKPVEVPGKPGVPLETKTYTIDINEDGSVTVNDS [r1_284_JUSTAS]”, the “folding stability dG unfold” value in data set [1] is -0.279 ± 0.15 kcal/mol. In the case of “SAGSEIEEIIKKIEEELKKKNPNKIVKVEKKKVIKKKKIVFIYEKKKTIEKEEYEIEIEITIKSPNIISAGG [r19_293_JUSTAS]”, the results for the “folding stability dG unfold” value in data set [1] and in data set [2] were 1.33 ± 0.21 kcal/mol and 0.83 ± 0.45 kcal/mol, respectively. Turning to “SAGGSAGGSAPPWTRVLGLGTFPPGVPDLPVEVPGGNVYALFTPTEDGSVQVLIVDLIPPLSAGGSAGGSAG [r3_464_TrMRF]”, the “folding stability dG unfold” value in data set [1] amounted to 0.965 ± 0.21 kcal/mol; in data set [2], 0.773 ± 0.17 kcal/mol. With “SAGGSAGGSAGKIRIDARPNGNWRAHYPGGKEHEFNSPDDIKDELEKKFPNFDIIEIEPWSAGGSAGGSAGG [r11_806_TrROS]”, the “folding stability dG unfold” value in data set [2] is less than -1 kcal/mol. With “SAGGSGDPNAAPVVVKVTIDITRPTADDSYVTSPVELTLLESEVDEFLAELEKEPDLELKVEVTLESAGGSA [r2_270_JUSTAS]”, in data set [1], the “folding stability dG unfold” value is 1.25 ± 0.026 kcal/mol.

On to “SAGGSAGGSAGGEARDNGVPTIEIPIPPEFKKGMPAEQMVDQLAKQLPPGVKDIHIEPPPSAGGSAGGSAGG [r7_487_TrROS]”, for which the “folding stability dG unfold” value in data set [1] was 0.744 ± 0.035 kcal/mol.

On to “SAGGSAGGSAGMKTLKTTTKVFPGTGVIVTESLVEFPNGSLKKLTKVTYVKNPNPSTTLASAGGSAGGSAGG [r17_41_JUSTAS]”, for which, in data set [1], the “folding stability dG unfold” value came to 0.545 ± 0.14 kcal/mol. As to “SAGGITINEDGTITIEVNGKTYTIKLPPGAEITKIEVLEDGTIKITLRINGKTVTLELKVYKEGEEPSAGGS [r16_635_TrROS_Hall]”, the “folding stability dG unfold” value in data set [1] was found to be 6.55 ± 0.68 kcal/mol. On the same count and under the same terms, in the case of “SAGGSATIEEIANMPAEEIAQEHGMEVKDVDIERVPNGTITVEVEYEPPDGKKHKHTFQIKIDEGQSAGGSA [r15_805_TrROS]” it was 0.251 ± 0.11 kcal/mol.

Take “SAGGSAGGSAPKLKFETEPYPNGGYYHKVKIDLEGPKIPITIPVNNNQPMPIEDFAKHILKKSAGGSAGGSA [r18_111_TrROS]”: the “folding stability dG unfold” value in data set [2] is less than -1 kcal/mol. Still for that read-out and setting: in the case of “SAGGSAGGSAGGMTVKEIAEKLGLPPGLKVEDIPLDPPNGYFEIEITHDDGPHTYRIPISAGGSAGGSAGGS [r10_17_TrROS]” it was less than -1 kcal/mol; in that of “SSLDDLSPEQAVDQAKFMVRMIRESRDNGKPEQYPKMINMLRRMASSAPPPDRKAVKEVLEEFKIPPEWFSA [r9_182_TrROS]”, less than -1 kcal/mol.

“SAGGSAKVIAVPSLEEALKLAEEAAKEGKDIVVLFPDNRLLVVEVKPAPDDKPVLKLKVFEIPPELSAGGSA [r15_761_TrMRF]”: in data set [1], the “folding stability dG unfold” value is 0.974 ± 0.072 kcal/mol.

For “EIIEKLKEAIKNAKPGETIEIKLPDGTIIKIEIEEEEKEVDGKKVKTKKIKIEIYDKDGKLIKKIELEIKES [r1_386_TrROS_Hall]”, the “folding stability dG unfold” value in data set [2] is more than 6 kcal/mol.

Take “SAGGSAGGSAKIKVEWEQHPEGYNLVKVEIPNPDNGKKKKVEGPFDSLEDAEDEAKELLKKSAGGSAGGSAG [r3_174_TrROS]”: in data set [2], the “folding stability dG unfold” value is less than -1 kcal/mol. For the sequence “SAGGSAGGSAGMEISTKTLPGDKYELTITLPDSKGTPITVTITFTSEEEAKKKLEEIIKKSAGGSAGGSAGG [r11_819_JUSTAS]”, the “folding stability dG unfold” value in data set [1] stood at 2.7 ± 0.11 kcal/mol. As for “SAGGSAGGSFEVEPTPDHVSIRYYNPDGNPPVSATVDPPEGDIDFEHPDKKQEFPLKPGDTLISAGGSAGGS [r12_536_TrROS]”, the “folding stability dG unfold” value in data set [2] was less than -1 kcal/mol. “SAGGEEVVVERPPAPPPITVTIEYDEETNTVTVTVTLPNGETLTITVEAPSLEEAEAAARELLEALSSAGGS [r16_319_TrROS_Hall]”: the “folding stability dG unfold” value in data set [1] amounted to 2.96 ± 0.37 kcal/mol. In the case of “SAGGSAGGSMKITKSPSGYYTVTINLPNGTTVEIKVSTSDPNATDEQIIEIAKPKAEEILKKSSAGGSAGGS [r12_642_JUSTAS]”, the “folding stability dG unfold” value in data set [1] amounted to 2.87 ± 0.12 kcal/mol.
